The values below come from paper PMC8435237, “Overexpressing the N‐terminus of CATALASE2 enhances plant jasmonic acid biosynthesis and resistance to necrotrophic pathogen Botrytis cinerea B05.10” (Molecular Plant Pathology, 2021).

Results are given in words; binding and its absence hold for the method and conditions named. For part of these data: Binding can be weak; no strength is given.

Common to all, as to assay: two-hybrid; yeast two-hybrid; CAT2 forms in pGBKT7, ACX2 and ACX3 in pGADT7; growth of yeast as in Yuan et al., 2017
The target of assay [1] is CAT2-N+H (N-terminus plus H-fragment of CAT2), yeast two-hybrid construct (Arabidopsis thaliana).
In assay [2] the target is truncated CAT2 N-terminus (CAT2-N), yeast two-hybrid construct (Arabidopsis thaliana).
Assay [3] concerns the target CAT2 C-terminus (CAT2-C), yeast two-hybrid construct (Arabidopsis thaliana).

B1: acyl-CoA oxidase 2 (ACX2), in pGADT7 (enzyme, UniProt O65201 1-692)
chain: MESRREKNPMTEEESDGLIAARRIQRLSLHLSPSLTPSPSLPLVQTETCSARSKKLDVNGEALSLYMRGKHIDIQEKIFDFFNSRPDLQTPIEISKDDHRELCMNQLIGLVREAGVRPFRYVADDPEKYFAIMEAVGSVDMSLGIKMGVQYSLWGGSVINLGTKKHRDKYFDGIDNLDYTGCFAMTELHHGSNVQGLQTTATFDPLKDEFVIDTPNDGAIKWWIGNAAVHGKFATVFARLILPTHDSKGVSDMGVHAFIVPIRDMKTHQTLPGVEIQDCGHKVGLNGVDNGALRFRSVRIPRDNLLNRFGDVSRDGTYTSSLPTINKRFGATLGELVGGRVGLAYASVGVLKISATIAIRYSLLRQQFGPPKQPEVSILDYQSQQHKLMPMLASTYAYHFATVYLVEKYSEMKKTHDEQLVADVHALSAGLKSYVTSYTAKALSVCREACGGHGYAAVNRFGSLRNDHDIFQTFEGDNTVLLQQVAADLLKRYKEKFQGGTLTVTWSYLRESMNTYLSQPNPVTARWEGEDHLRDPKFQLDAFRYRTSRLLQNVAARLQKHSKTLGGFGAWNRCLNHLLTLAESHIETVILAKFIEAVKNCPDPSAKAALKLACDLYALDRIWKDIGTYRNVDYVAPNKAKAIHKLTEYLSFQVRNVAKELVDAFELPDHVTRAPIAMQSDAYSQYTQVVGF
With B1, the binding result was “binds” in assay [1], “binds” in assay [2] and “no binding” in assay [3].

B2: acyl-CoA oxidase 3 (ACX3), in pGADT7 (enzyme, UniProt P0CZ23 1-675)
chain: MSDNRALRRAHVLANHILQSNPPSSNPSLSRELCLQYSPPELNESYGFDVKEMRKLLDGHNVVDRDWIYGLMMQSNLFNRKERGGKIFVSPDYNQTMEQQREITMKRIWYLLENGVFKGWLTETGPEAELRKLALLEVCGIYDHSVSIKVGVHFFLWGNAVKFFGTKRHHEKWLKNTEDYVVKGCFAMTELGHGSNVRGIETVTTYDPKTEEFVINTPCESAQKYWIGGAANHATHTIVFSQLHINGTNQGVHAFIAQIRDQDGSICPNIRIADCGHKIGLNGVDNGRIWFDNLRIPRENLLNAVADVSSDGKYVSSIKDPDQRFGAFMAPLTSGRVTIASSAIYSAKVGLSIAIRYSLSRRAFSVTANGPEVLLLDYPSHQRRLLPLLAKTYAMSFAANELKMIYVKRTPETNKAIHVVSSGFKAVLTWHNMHTLQECREAVGGQGVKTENLVGQLKGEFDVQTTFEGDNNVLMQQVSKALFAEYVSCKKRNKPFKGLGLEHMNSPRPVLPTQLTSSTLRCSQFQTNVFCLRERDLLEQFTSEVAQLQGRGESREFSFLLSHQLAEDLGKAFTEKAILQTILDAEAKLPTGSVKDVLGLVRSMYALISLEEDPSLLRYGYLSQDNVGDVRREVSKLCGELRPHALALVTSFGIPDSFLSPIAFNWVEANAWSSV
With B2, the binding result in assay [1] is “binds”; in assay [2] it was “binds”; in assay [3] it was “no binding”.
